Reference: the supplement of paper PMC9135407
Values joined by “and” are separate entries in the source; they are usually repeats but may differ in a detail not shown here. Identical values can stand only once. Counter-ions that a name gives are not always drawn. ± gives the standard deviation of the averaged measurements. The list shows a part of the results. Baselines shift from plate to plate; read single values as rough.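 Assay uses culture-activated primary human stellate myofibroblasts; lipid droplet recovery indicates inactivation. Measured: proportion of Hoechst-counted cells over a plate-specific Bodipy cutoff, duplicate wells, DMSO and nortriptyline as per-plate negative and positive controls. A hit scores, control-normalized, above the plate's top-tenth-percentile nortriptyline wells or ranks among its three best wells. Final well concentrations not reported.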

System: primary human hepatic stellate cells (donor 1)
Experiment: percent Bodipy-positive cells; higher = more lipid droplet accumulation
Settings: 48 h
[1] = library stock concentration: 1 mM
[2] = library stock concentration: 80 uM
[3] = library stock concentration: 400 uM
[4] = library stock concentration: 2 mM
[5] = library stock concentration: 10 mM
[6] = library stock concentration: 3.33 mM

CCCCCOc1ccccc1C(O)CC#CCCCC(=O)OC (stereo unspecified)
percent Bodipy-positive cells [1]: 6.31 ± 1.6%

OCCCNc1cc(-c2ccnc(Nc3cccc(Cl)c3)n2)ccn1
percent Bodipy-positive cells [2]: 37.7 ± 1.5% | percent Bodipy-positive cells [3]: 51.5 ± 4.8% | percent Bodipy-positive cells [4]: 61.8 ± 2.5%

CSc1nc(NC2CCCC2)c([N+](=O)[O-])c(NC2CCCC2)n1
percent Bodipy-positive cells [5]: 8.42 ± 2.8%

CCOC(=O)c1ccc(OC(=O)CCCCCNC(=N)N)cc1 [Gabexate mesilate]
percent Bodipy-positive cells: 10.4 ± 3.2%

CCOC(=O)c1ccc(OC(=O)CCCCCNC(=N)N)cc1 [Gabexate mesylate]
percent Bodipy-positive cells [5]: 8.51 ± 2.6%

CCOC(=O)c1ccc(OC(=O)CCCCCNC(=N)N)cc1
percent Bodipy-positive cells [5]: 10.5 ± 3.5%

OC[C@H]1O[C@H]([S-])[C@H](O)[C@@H](O)[C@@H]1O.[Au+] [Aurothioglucose]
percent Bodipy-positive cells (library stock concentration: 5.1 mM): 35.6 ± 10% | percent Bodipy-positive cells [5]: 100%

CC(C)(C)Cn1c(N)nc2ccc(-c3[nH]c(C(C)(C)C)nc3-c3ccc(F)cc3)nc21 [Ralimetinib]
percent Bodipy-positive cells [2]: 12.7 ± 0.3% | percent Bodipy-positive cells [3]: 17.4 ± 2% | percent Bodipy-positive cells [4]: 17 ± 2.2% | percent Bodipy-positive cells [5]: 69.6 ± 13%

CC(C)(C)Cn1c(N)nc2ccc(-c3[nH]c(C(C)(C)C)nc3-c3ccc(F)cc3)nc21
percent Bodipy-positive cells [6]: 18.4 ± 9.7% | percent Bodipy-positive cells [5]: 57 ± 2.3%

CCCN[C@H]1CCc2nc(N)sc2C1
percent Bodipy-positive cells [5]: 10.6% and 20.2%

CCCN[C@H]1CCc2nc(N)sc2C1 [Pramipexole]
percent Bodipy-positive cells [6]: 22 ± 5.3% | percent Bodipy-positive cells (library stock concentration: 9.5 mM): 11.4 ± 0.12% | percent Bodipy-positive cells [5]: 10.4% and 8.78%

O=C(NC1CCN(CCCCC2(C(=O)NCC(F)(F)F)c3ccccc3-c3ccccc32)CC1)c1ccccc1-c1ccc(C(F)(F)F)cc1 [Lomitapide]
percent Bodipy-positive cells [5]: 98.8 ± 1.8%

CCC(=O)N1CCN(C(=O)c2ccccc2)CC1
percent Bodipy-positive cells [5]: 26.4 ± 11%

CC(=O)c1ccc(S(=O)(=O)NC(=O)NC2CCCCC2)cc1 [Acetohexamide]
percent Bodipy-positive cells: 21.9 ± 1.3% | percent Bodipy-positive cells (library stock concentration: 6.2 mM): 17 ± 14% | percent Bodipy-positive cells [5]: 31.8 ± 3.2%

Cc1c(-c2ccnn2C)cc(C(=O)NCc2ccc(S(C)(=O)=O)cn2)c(=O)n1-c1cccc(C(F)(F)F)c1 [Alvelestat (AZD9668)]
percent Bodipy-positive cells [6]: 17.5 ± 6% | percent Bodipy-positive cells [5]: 18.6 ± 2.7%

CCCCC[C@H](O)/C=C/[C@@H]1[C@@H](C/C=C\CCCC(=O)O)[C@@H](O)C[C@H]1O [Prostaglandin F2.alpha.]
percent Bodipy-positive cells [1]: 13.1 ± 0.15%

CCCCC[C@H](O)/C=C/[C@@H]1[C@@H](C/C=C\CCCC(=O)O)[C@@H](O)C[C@H]1O [Dinoprost trometamol]
percent Bodipy-positive cells: 21 ± 6%

CCCCC[C@H](O)/C=C/[C@@H]1[C@@H](C/C=C\CCCC(=O)O)[C@@H](O)C[C@H]1O [Prostaglandin F2a]
percent Bodipy-positive cells [1]: 10.9 ± 9.6%

CCCCC[C@H](O)/C=C/[C@@H]1[C@@H](C/C=C\CCCC(=O)O)[C@@H](O)C[C@H]1O [Prostaglandin F2.alpha. (tromethamine salt)]
percent Bodipy-positive cells [1]: 10.1 ± 0.6%

CCSC(=N)N [EIT hydrobromide]
percent Bodipy-positive cells [5]: 6.23 ± 3.6%

CCSC(=N)N [S-Ethylisothiourea hydrobromide]
percent Bodipy-positive cells [5]: 68.7 ± 17%

CCSC(=N)N [S-ethyl Isothiourea (hydrobromide)]
percent Bodipy-positive cells [1]: 7.33 ± 0.89%

O=C(O)CCC/C=C\C[C@@H]1[C@@H](/C=C/[C@@H](O)C2CCCCC2)[C@H](O)C[C@@H]1O [15-cyclohexyl pentanor Prostaglandin F2.alpha.]
percent Bodipy-positive cells [1]: 13.8 ± 1.2%

CCCCCCCC/C=C/CCCCCCCC(=O)Nc1c(C(C)C)cccc1C(C)C [Oleic Acid-2,6-diisopropylanilide]
percent Bodipy-positive cells [1]: 14.7 ± 5.4%

CC(=O)Nc1cccc2c1c(Sc1ccc(Cl)cc1)c(C)n2CC(=O)O
percent Bodipy-positive cells [6]: 31.8 ± 2.5% | percent Bodipy-positive cells [5]: 22.4 ± 1.2%

CNc1ncnc2c1ncn2[C@H]1C[C@H](OP(=O)(O)O)[C@@H](COP(=O)(O)O)O1
percent Bodipy-positive cells [5]: 23 ± 6.7%

CC(COc1ccccc1)N(CCCl)Cc1ccccc1 (stereo unspecified) [Phenoxybenzamine HCl]
percent Bodipy-positive cells [6]: 11.2 ± 2.2% | percent Bodipy-positive cells (library stock concentration: 6.6 mM): 12.7 ± 2.4% | percent Bodipy-positive cells [5]: 26.7 ± 2.1%

CC(COc1ccccc1)N(CCCl)Cc1ccccc1 (stereo unspecified) [Phenoxybenzamine]
percent Bodipy-positive cells (library stock concentration: 16.5 mM): 20 ± 7.8%

CC(COc1ccccc1)N(CCCl)Cc1ccccc1 (stereo unspecified) [Dibenzyline]
percent Bodipy-positive cells [5]: 62.3 ± 12%

CC(COc1ccccc1)N(CCCl)Cc1ccccc1 (stereo unspecified) [Phenoxybenzamine hydrochloride]
percent Bodipy-positive cells: 15.9 ± 2.4% | percent Bodipy-positive cells (library stock concentration: 5.9 mM): 17.5 ± 8.5%

Nc1ncn([C@@H]2O[C@H](CO)[C@@H](O)[C@H]2O)c(=O)n1 [5-azacytidine]
percent Bodipy-positive cells [5]: 45 ± 7.8%

Nc1ncn([C@@H]2O[C@H](CO)[C@@H](O)[C@H]2O)c(=O)n1 [Azacitidine]
percent Bodipy-positive cells [2]: 46.6 ± 7.6% | percent Bodipy-positive cells [3]: 48.7 ± 4% | percent Bodipy-positive cells [4]: 44.7 ± 5.5% | percent Bodipy-positive cells [6]: 12.1 ± 1.8%

Nc1ncn([C@@H]2O[C@H](CO)[C@@H](O)[C@H]2O)c(=O)n1 [5-Azacytidine]
percent Bodipy-positive cells [5]: 45 ± 0.76%

CCCNC(C)C(=O)Nc1ccccc1C (stereo unspecified) [Prilocaine hydrochloride]
percent Bodipy-positive cells: 35.2 ± 12% | percent Bodipy-positive cells (library stock concentration: 7.8 mM): 12.2 ± 2.5%

CCCNC(C)C(=O)Nc1ccccc1C (stereo unspecified) [Prilocaine]
percent Bodipy-positive cells [6]: 4.18 ± 1.5% | percent Bodipy-positive cells [5]: 11.1 ± 2.8%
